Experimental data published in paper PMC4741301.
These are yes or no findings as the source states them, for the method shown. Binding seen in cells or lysates may run through a third protein.

Protein sequences, listed by entry. Tags and fused reporters are not part of them. Lines headed by an entry give the natural chain unless they say otherwise; changes in a name come on top.
UniProt Q9P2M4: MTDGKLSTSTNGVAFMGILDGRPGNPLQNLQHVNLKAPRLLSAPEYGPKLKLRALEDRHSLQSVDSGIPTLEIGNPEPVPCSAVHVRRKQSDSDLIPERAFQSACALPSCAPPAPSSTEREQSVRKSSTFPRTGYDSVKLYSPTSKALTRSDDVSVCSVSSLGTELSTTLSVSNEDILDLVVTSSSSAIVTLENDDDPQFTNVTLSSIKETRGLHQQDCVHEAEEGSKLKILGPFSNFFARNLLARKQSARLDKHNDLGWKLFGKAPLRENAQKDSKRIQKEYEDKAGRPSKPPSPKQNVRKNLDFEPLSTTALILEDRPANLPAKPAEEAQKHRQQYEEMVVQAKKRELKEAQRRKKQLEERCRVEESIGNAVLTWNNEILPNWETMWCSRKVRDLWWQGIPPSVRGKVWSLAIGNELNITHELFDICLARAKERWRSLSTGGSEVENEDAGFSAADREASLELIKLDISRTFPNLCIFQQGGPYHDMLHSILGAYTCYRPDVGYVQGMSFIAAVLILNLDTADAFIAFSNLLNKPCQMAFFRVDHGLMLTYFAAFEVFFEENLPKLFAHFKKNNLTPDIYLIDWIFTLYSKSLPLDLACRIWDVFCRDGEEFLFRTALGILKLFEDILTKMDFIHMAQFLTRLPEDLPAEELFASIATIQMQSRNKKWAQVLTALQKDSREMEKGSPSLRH
UniProt Q9Y296: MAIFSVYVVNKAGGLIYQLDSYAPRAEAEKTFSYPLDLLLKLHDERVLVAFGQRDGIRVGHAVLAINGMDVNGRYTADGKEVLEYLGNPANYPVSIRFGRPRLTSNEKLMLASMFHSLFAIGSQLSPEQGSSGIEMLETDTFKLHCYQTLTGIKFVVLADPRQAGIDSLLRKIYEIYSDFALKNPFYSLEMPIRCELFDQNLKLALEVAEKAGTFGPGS
UniProt Q8WVT3: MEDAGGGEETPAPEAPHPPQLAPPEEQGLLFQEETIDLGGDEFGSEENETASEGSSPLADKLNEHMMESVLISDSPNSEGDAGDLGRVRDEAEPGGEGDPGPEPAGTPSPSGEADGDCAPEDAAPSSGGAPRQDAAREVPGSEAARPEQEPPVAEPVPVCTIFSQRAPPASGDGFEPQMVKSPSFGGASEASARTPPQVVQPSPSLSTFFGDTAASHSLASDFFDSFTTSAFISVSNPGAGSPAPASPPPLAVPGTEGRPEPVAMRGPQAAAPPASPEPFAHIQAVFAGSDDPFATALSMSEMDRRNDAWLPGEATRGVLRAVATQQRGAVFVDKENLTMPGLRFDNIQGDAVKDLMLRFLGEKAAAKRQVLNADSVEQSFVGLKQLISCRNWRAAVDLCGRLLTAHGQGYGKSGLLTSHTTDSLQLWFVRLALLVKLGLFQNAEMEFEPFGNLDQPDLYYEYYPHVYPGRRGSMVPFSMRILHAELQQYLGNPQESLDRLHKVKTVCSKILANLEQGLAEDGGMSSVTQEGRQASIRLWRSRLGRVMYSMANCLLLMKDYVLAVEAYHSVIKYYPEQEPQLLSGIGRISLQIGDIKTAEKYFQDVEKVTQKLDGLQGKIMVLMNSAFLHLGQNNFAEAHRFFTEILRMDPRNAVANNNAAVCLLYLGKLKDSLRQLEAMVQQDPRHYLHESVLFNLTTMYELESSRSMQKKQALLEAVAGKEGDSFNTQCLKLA

Molecular target: GFP‐TBC1D14 224–669 (UniProt Q9P2M4)
Assay: co-IP; GFP‐Trap IP from lysates of cells (HEK293A) expressing GFP or GFP fusions; immunoblot for endogenous partners

binding | Substance
no binding | TRAPPC4 (from UniProt Q9Y296 1-219)
no binding | TRAPPC12/TTC15 (from UniProt Q8WVT3 1-735)
